For this experiment, the target named is FLAG-epsin 1, full length (UniProt Q9Y6I3). Briefly: co-IP.

Protein sequences, listed by entry. Tags and fused reporters are not part of them. Residues count along the entry.
UniProt Q9Y6I3: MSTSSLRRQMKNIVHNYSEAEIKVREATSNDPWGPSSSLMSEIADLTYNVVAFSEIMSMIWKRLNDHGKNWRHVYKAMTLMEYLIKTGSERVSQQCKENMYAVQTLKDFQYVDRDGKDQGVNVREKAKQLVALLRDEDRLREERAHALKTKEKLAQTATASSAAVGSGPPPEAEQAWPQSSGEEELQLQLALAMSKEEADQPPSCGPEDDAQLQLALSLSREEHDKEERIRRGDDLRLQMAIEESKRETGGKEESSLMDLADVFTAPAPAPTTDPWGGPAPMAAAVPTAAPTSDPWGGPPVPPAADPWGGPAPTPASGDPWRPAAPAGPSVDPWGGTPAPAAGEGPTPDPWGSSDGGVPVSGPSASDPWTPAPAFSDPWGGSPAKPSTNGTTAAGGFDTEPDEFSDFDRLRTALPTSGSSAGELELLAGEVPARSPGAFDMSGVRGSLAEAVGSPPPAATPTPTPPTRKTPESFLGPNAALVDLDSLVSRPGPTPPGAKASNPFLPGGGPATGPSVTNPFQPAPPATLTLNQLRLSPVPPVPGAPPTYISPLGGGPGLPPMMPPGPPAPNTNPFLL
UniProt Q07113, residues 36-2483: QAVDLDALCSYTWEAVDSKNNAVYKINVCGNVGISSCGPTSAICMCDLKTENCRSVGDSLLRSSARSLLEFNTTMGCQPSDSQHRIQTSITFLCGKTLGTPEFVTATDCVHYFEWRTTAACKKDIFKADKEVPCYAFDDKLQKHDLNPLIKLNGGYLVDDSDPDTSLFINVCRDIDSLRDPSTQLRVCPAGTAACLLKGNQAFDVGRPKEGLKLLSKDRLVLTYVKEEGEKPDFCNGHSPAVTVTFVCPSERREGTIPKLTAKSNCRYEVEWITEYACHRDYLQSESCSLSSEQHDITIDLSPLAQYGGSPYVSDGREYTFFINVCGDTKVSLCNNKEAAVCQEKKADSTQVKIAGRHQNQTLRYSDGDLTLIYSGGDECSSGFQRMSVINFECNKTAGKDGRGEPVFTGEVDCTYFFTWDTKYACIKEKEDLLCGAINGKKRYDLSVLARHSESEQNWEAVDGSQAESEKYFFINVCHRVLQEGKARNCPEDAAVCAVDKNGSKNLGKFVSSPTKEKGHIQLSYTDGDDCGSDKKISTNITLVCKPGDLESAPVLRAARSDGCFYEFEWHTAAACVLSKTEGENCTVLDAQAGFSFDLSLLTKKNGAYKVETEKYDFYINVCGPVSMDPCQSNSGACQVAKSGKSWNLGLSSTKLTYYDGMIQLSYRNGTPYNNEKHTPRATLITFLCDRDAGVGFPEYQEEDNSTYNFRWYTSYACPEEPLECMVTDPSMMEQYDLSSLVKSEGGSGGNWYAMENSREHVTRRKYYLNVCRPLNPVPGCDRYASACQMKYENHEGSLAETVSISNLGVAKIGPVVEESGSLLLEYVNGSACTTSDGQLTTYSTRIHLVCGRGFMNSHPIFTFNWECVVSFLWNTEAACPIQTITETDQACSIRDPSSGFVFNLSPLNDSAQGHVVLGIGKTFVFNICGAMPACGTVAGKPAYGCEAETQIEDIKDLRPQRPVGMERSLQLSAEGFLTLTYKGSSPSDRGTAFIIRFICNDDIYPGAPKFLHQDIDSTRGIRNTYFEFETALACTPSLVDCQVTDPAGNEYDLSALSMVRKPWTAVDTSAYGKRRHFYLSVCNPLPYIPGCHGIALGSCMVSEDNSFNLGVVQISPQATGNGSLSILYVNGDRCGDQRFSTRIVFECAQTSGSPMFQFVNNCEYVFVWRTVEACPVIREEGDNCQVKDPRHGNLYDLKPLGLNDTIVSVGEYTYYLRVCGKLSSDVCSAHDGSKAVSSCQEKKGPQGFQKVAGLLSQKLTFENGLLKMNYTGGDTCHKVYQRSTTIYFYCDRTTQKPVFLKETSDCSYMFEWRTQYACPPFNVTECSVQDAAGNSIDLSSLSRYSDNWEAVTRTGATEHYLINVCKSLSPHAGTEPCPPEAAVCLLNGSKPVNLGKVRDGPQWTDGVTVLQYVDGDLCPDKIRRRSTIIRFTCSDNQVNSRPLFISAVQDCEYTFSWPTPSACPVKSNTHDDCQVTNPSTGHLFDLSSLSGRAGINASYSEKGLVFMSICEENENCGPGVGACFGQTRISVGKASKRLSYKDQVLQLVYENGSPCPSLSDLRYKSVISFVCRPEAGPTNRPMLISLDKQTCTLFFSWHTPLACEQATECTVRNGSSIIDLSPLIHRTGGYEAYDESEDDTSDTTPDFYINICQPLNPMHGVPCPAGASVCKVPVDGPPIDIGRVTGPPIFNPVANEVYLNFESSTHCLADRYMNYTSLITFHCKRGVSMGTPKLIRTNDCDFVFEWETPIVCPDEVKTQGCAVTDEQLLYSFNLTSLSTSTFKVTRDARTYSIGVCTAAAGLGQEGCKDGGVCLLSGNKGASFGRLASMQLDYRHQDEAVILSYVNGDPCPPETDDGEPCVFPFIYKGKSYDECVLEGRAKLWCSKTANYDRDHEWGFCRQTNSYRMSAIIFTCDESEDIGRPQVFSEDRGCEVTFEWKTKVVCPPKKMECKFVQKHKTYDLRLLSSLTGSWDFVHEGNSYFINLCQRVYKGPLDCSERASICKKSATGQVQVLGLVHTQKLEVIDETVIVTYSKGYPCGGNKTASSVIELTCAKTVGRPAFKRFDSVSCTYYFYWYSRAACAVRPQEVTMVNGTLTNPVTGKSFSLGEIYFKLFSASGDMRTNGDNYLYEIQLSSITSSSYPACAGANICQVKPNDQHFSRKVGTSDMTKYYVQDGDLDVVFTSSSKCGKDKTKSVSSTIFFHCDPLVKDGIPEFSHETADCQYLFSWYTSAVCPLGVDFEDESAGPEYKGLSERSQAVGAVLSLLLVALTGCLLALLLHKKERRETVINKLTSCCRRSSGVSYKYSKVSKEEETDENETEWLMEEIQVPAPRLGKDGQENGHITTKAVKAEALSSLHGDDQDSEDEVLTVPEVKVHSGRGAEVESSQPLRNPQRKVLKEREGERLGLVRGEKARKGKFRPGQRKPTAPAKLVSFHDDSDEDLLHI

No constants are given. Whether binding was seen depends on the method and setting. In cells and extracts the contact can be indirect. Some results given as binding are weak or reduced against the parent protein; the word gives no strength.

On to “IGF type 2 receptor (IGF2R) (from UniProt Q07113 36-2483)”, for which the binding entry is “binds”.
